The values that follow come from the supplement of paper PMC9135407.

The assay concerns primary human hepatic stellate cells (donor 1). The experiment in a line: percent Bodipy-positive cells; higher = more lipid droplet accumulation. Particulars: 48 h.
Where [1] appears, read: library stock concentration: 10 mM.
The mark [2] stands for this setting: library stock concentration: 3.33 mM.
Where [3] appears, read: library stock concentration: 5.1 mM.
Setting [4] is: library stock concentration: 1 mM.

Where “and” joins values, the source holds several entries; their conditions need not be identical. Equal values may be shown once. Where a name gives a salt, the structure may show the parent alone. ± gives the standard deviation of the averaged measurements. The list shows a part of the results. Baselines shift from plate to plate; read single values as rough.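 Primary human stellate myofibroblasts activated in culture; inactivation shown by regained lipid droplets. Readout: fraction of Hoechst-counted cells exceeding a per-plate Bodipy threshold, duplicate wells, each plate with DMSO negative and nortriptyline positive controls. Hits: control-normalized score beyond the plate's top-tenth-percentile nortriptyline wells, or among its three best wells. Final well concentrations unstated.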

Turning to `Cc1c(O)cccc1C(=O)N[C@@H](CSc1ccccc1)[C@H](O)CN1C[C@H]2CCCC[C@H]2C[C@H]1C(=O)NC(C)(C)C`, the “percent Bodipy-positive cells” value under setting [1] came to 42.4 ± 12%.

As for `Cc1c(O)cccc1C(=O)N[C@@H](CSc1ccccc1)[C@H](O)CN1C[C@H]2CCCC[C@H]2C[C@H]1C(=O)NC(C)(C)C` [Nelfinavir mesylate hydrate], the “percent Bodipy-positive cells” value under setting [1] stood at 66.8 ± 13%.

As for `Cc1c(O)cccc1C(=O)N[C@@H](CSc1ccccc1)[C@H](O)CN1C[C@H]2CCCC[C@H]2C[C@H]1C(=O)NC(C)(C)C` [Nelfinavir Mesylate], the “percent Bodipy-positive cells” value worked out at 15.3 ± 3.9% (library stock concentration: 3 mM), 9.61 ± 1.7% under setting [2] and 81 ± 1.7% under setting [1].

For `COc1cc2nc(N3CCN(C(=O)c4ccco4)CC3)nc(N)c2cc1OC` [Prazocin], the “percent Bodipy-positive cells” value (library stock concentration: 13 mM) was determined as 94.9 ± 3.5%.

In the case of `O=C(O)c1cc(O)c(O)c(O)c1` [Gallic acid], the “percent Bodipy-positive cells” value worked out at 25.4 ± 13% under setting [1] and 3.6 ± 0.32% (library stock concentration: 11.8 mM).

As to `CCN(CC)C(=O)N1CCN(C)CC1` [Diethylcarbamazine citrate], the “percent Bodipy-positive cells” value came to 21.6 ± 8.6%. In addition, the “percent Bodipy-positive cells” value under setting [3] came out at 1.26 ± 0.53%. The “percent Bodipy-positive cells” value under setting [1] is 14.7 ± 4.2%.

With `CCCCC#Cc1nc(NC)c2ncn([C@@H]3O[C@H](CO)[C@@H](O)[C@H]3O)c2n1`, the “percent Bodipy-positive cells” value under setting [1] was 33.4% and 11.2%.

`O=S(=O)(NO)c1ccccc1` [Piloty's Acid]: the “percent Bodipy-positive cells” value under setting [4] was determined as 10.6 ± 2.6%.

As to `O=P(O)(O)C(O)(Cc1cccnc1)P(=O)(O)O` [Risedronic acid], the “percent Bodipy-positive cells” value (library stock concentration: 7.1 mM) was determined as 4.81 ± 0.081%.

For the compound `Nc1nccc2c1ncn2[C@@H]1O[C@H](CO)[C@@H](O)[C@H]1O` [3-deazaadenosine], under setting [1], the “percent Bodipy-positive cells” value came to 45.5 ± 25%.

For `N[C@@H](Cc1ccc(F)cc1)C(=O)O` [p-Fluoro-L-phenylalanine], the “percent Bodipy-positive cells” value under setting [1] is 52 ± 4.8%.

For the compound `O=C(Nc1ccc2[nH]ncc2c1)C1CCC1` [Rhodblock 6], the “percent Bodipy-positive cells” value under setting [1] amounted to 34.9 ± 1.4%.

Turning to `CCCCC[C@H](O)/C=C/[C@H]1CC[C@@H](O)[C@@H]1C/C=C\CCCC(=O)O` [11-deoxy Prostaglandin F2.beta.], the “percent Bodipy-positive cells” value under setting [4] came to 21.8 ± 5.3%.

Consider `CCN(CCCc1ccccc1)CCCc1ccccc1` [Alverine citrate], for which the “percent Bodipy-positive cells” value under setting [1] came to 45.6 ± 6.4%.

As for `CCN(CCCc1ccccc1)CCCc1ccccc1` [Alverine Citrate], the “percent Bodipy-positive cells” value was determined as 29.2 ± 3.2% under setting [2] and 62.9 ± 5.5% under setting [1].

Take `CCN(CCCc1ccccc1)CCCc1ccccc1` [Alverine citrate salt]: the “percent Bodipy-positive cells” value was 60.6 ± 1.3%.

Turning to `Cc1c(C)c2c(c(C)c1O)CC[C@@](C)(CCC[C@H](C)CCC[C@H](C)CCCC(C)C)O2` (racemic) [Tocopherol (R,S)], the “percent Bodipy-positive cells” value was determined as 26.6 ± 14%.

As to `CCCCC(CC)COC(=O)c1ccccc1O` (configuration not stated) [Octisalate], under “library stock concentration: 8 mM”, the “percent Bodipy-positive cells” value was 2.22 ± 0.26%.

On to `CC(CCc1ccc(O)cc1)NCC(O)c1ccc(O)cc1` (configuration not stated) [Ractopamine], for which, for the setting “library stock concentration: 6.6 mM”, the “percent Bodipy-positive cells” value stood at 8.61 ± 3%.

As to `CC(CCc1ccc(O)cc1)NCC(O)c1ccc(O)cc1` (configuration not stated), the “percent Bodipy-positive cells” value under setting [1] worked out at 21.6 ± 4%.

Turning to `CC(=O)[C@H]1CC[C@H]2[C@@H]3CC=C4C[C@@H](OC(=O)CCC(=O)O)CC[C@]4(C)[C@H]3CC[C@]12C`, the “percent Bodipy-positive cells” value under setting [1] amounted to 32.1 ± 2%.

With `CCN(CC)C(=O)CCC/C=C\C[C@@H]1[C@@H](/C=C/[C@@H](O)CCc2ccccc2)[C@H](O)C[C@@H]1O` [17-phenyl trinor Prostaglandin F2.alpha. diethyl amide], under setting [4], the “percent Bodipy-positive cells” value amounted to 16.8 ± 2.6%.

In the case of `CC[C@]1(O)C[C@@H]2CN(CCc3c([nH]c4ccccc34)[C@@](C(=O)OC)(c3cc4c(cc3OC)N(C)[C@H]3[C@@](O)(C(=O)OC)[C@H](OC(C)=O)[C@]5(CC)C=CCN6CC[C@]43[C@@H]65)C2)C1` [Vinblastine], the “percent Bodipy-positive cells” value under setting [2] is 69.7 ± 4.6%.

`O=C(O)c1ccc(N2C(=O)C(=Cc3ccc(-c4ccc([N+](=O)[O-])cc4)o3)C=C2c2ccccc2)cc1`: the “percent Bodipy-positive cells” value reads like this: under setting [2], 3.89 ± 0.56%; under setting [1], 10.9 ± 5.3%.

Regarding `CC(C)(C)C(O)/C=C/c1ccc2c(c1)OCO2` (configuration not stated) [Stiripentol], the “percent Bodipy-positive cells” value under setting [1] was determined as 9.62 ± 3.1%.

Turning to `Cc1cc(CS(=O)(=O)c2ccccc2)cc(OCc2ccc(CN3CCC[C@@H]3CO)cc2)c1`, the “percent Bodipy-positive cells” value under setting [2] worked out at 64.2 ± 14%.

`CC(/C=C/C(=O)NO)=C\[C@@H](C)C(=O)c1ccc(N(C)C)cc1` [Trichostatin A]: under setting [4], the “percent Bodipy-positive cells” value turned out to be 71.2 ± 6.7%.

Turning to `Nc1cc(N2CCCCC2)nc(N)[n+]1OS(=O)(=O)[O-]` [Minoxidil sulfate], the “percent Bodipy-positive cells” value (library stock concentration: 17.3 mM) was 12.3 ± 1.3%.

On to `Clc1ccc(COC(Cn2ccnc2)c2ccc(Cl)cc2Cl)cc1` (configuration not stated) [Econazole nitrate], for which the “percent Bodipy-positive cells” value is 52.8 ± 2%. Also, the “percent Bodipy-positive cells” value under setting [2] came out at 5.69 ± 2%. For the same compound, the “percent Bodipy-positive cells” value (library stock concentration: 4.5 mM) came to 63.6 ± 15%. Moreover, the “percent Bodipy-positive cells” value under setting [1] was 42.9% and 28.6%.

As for `Clc1ccc(COC(Cn2ccnc2)c2ccc(Cl)cc2Cl)cc1` (configuration not stated) [Econazole Nitrate], the “percent Bodipy-positive cells” value under setting [1] came out at 95.6 ± 3.2%.

In the case of `Cc1cc(N2CCOCC2)cc2[nH]c(-c3c(NCC(O)c4cccc(Cl)c4)cc[nH]c3=O)nc12` (configuration not stated), the “percent Bodipy-positive cells” value runs as follows: under setting [2], 6.65 ± 0.93%; under setting [1], 66.6 ± 12%.

On to `C[C@H](CCC(=O)NCC(=O)O)[C@H]1CC[C@H]2[C@@H]3[C@H](O)C[C@@H]4C[C@H](O)CC[C@]4(C)[C@H]3C[C@H](O)[C@]12C` [Glycocholic acid], for which the “percent Bodipy-positive cells” value was 38.7 ± 15%.

Take `CCCCCCCC/C=C\CCCCCCCCCCCC(=O)O` [13(Z)-Docosenoic Acid]: the “percent Bodipy-positive cells” value under setting [4] amounted to 12.1 ± 2.4%.

As to `CN(C)CCOc1ccc(-c2nc(-c3ccncc3)c(-c3ccc4c(c3)CCC4=NO)[nH]2)cc1`, the “percent Bodipy-positive cells” value under setting [2] was found to be 86 ± 12%.

For the compound `CO/N=C1\CN(c2nc3c(cc2F)c(=O)c(C(=O)O)cn3C2CC2)CC1CN` (configuration not stated) [Gemifloxacin mesylate], under setting [1], the “percent Bodipy-positive cells” value was 34.4 ± 3.2%.

As for `CCNc1nc2c(ncn2[C@H]2C[C@H](O)[C@@H](CO)O2)c(=O)[nH]1` [N2-Ethyl-2'-deoxyguanosine], under setting [1], the “percent Bodipy-positive cells” value amounted to 12.75 ± 0.088%.

Take `Clc1ccccc1C(c1ccccc1)(c1ccccc1)n1ccnc1` [Clotrimazole]: the “percent Bodipy-positive cells” value stood at 25.1 ± 3.9%. Besides, the “percent Bodipy-positive cells” value under setting [2] is 7.68 ± 4.5%. Besides, the “percent Bodipy-positive cells” value (library stock concentration: 5.8 mM) was found to be 3.1 ± 3%.

As to `NC(=O)NO` [Hydroxyurea], the “percent Bodipy-positive cells” value runs as follows: under setting [2], 6.36 ± 0.44%; under setting [1], 21.8% and 18.4% and 40.6%; (library stock concentration: 26.3 mM) 2.11 ± 1.2%.

For the compound `CCN(CC)C(=O)c1ccc(Nc2nc(OCC3CCCCC3)c3[nH]cnc3n2)cc1` [Cdk2 Inhibitor IV, NU6140], the “percent Bodipy-positive cells” value under setting [2] came to 8.79 ± 0.76%.

`Cc1cc(C(=O)Nc2cc(Nc3ccc4c(/C=C/c5ccccn5)n[nH]c4c3)ccc2F)n(C)n1`: the “percent Bodipy-positive cells” value under setting [1] worked out at 89.9 ± 3%.

As for `CN1CCN(C2=Nc3cc(Cl)ccc3Nc3ccccc32)CC1`, the “percent Bodipy-positive cells” value under setting [1] was determined as 88.5 ± 2.5%.

Regarding `CN1CCC[C@H]1c1cccnc1`, the “percent Bodipy-positive cells” value under setting [1] was 29.1 ± 2.8%.

As to `CN1CCC[C@H]1c1cccnc1` [Nicotine ditartrate], under setting [1], the “percent Bodipy-positive cells” value stood at 46 ± 2.9%.

With `O=S(=O)(O)CCSSCCS(=O)(=O)O` [Dimesna], the “percent Bodipy-positive cells” value reads like this: under setting [2], 11.5 ± 6.8%; under setting [1], 17.8 ± 1.1%.

As for `O=S(=O)(O)CCSSCCS(=O)(=O)O`, the “percent Bodipy-positive cells” value under setting [1] was 24.9 ± 2.1%.

In the case of `CCCC(C(=O)OCCN(CC)CC)(c1ccccc1)c1ccccc1` [SKF-525A hydrochloride], under setting [1], the “percent Bodipy-positive cells” value stood at 97.1 ± 1.9%.

On to `CCCC(C(=O)OCCN(CC)CC)(c1ccccc1)c1ccccc1` [Proadifen hydrochloride], for which the “percent Bodipy-positive cells” value amounted to 44.5 ± 6%. Besides, the “percent Bodipy-positive cells” value under setting [3] was found to be 75 ± 4%. Besides, the “percent Bodipy-positive cells” value under setting [1] was 76.9 ± 1.6%.

As for `CO[C@H]1C(=O)[C@]2(C)[C@@H](OC)C[C@H]3OC[C@@]3(OC(C)=O)[C@H]2[C@H](OC(=O)c2ccccc2)[C@]2(O)C[C@H](OC(=O)[C@H](O)[C@@H](NC(=O)OC(C)(C)C)c3ccccc3)C(C)=C1C2(C)C` [Cabazitaxel], the “percent Bodipy-positive cells” value stood at 7.78 ± 2.7% under setting [2] and 15 ± 2.4% under setting [1].
